Data published in the supplement of paper PMC8728848.
This is one part of the list.

Experiments:
Assay in all cases: glycan array binding signal (z-score within array); higher = stronger binding
Settings in all cases: glycan notation: IUPAC condensed, linker removed
[1] = target: Gal3S(b1-4)[Fuc(a1-3)]Glc
Method in brief: (§1)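 Arrays were curated from the Consortium for Functional Glycomics database, 3228 in total, and kept only where the protein sequence was available. Binding is expressed as a within-array Z-score. This score was averaged across arrays of the same protein sequence at different concentrations or buffers and across linkers, and negative values can be read as non-binding.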

[2] = target: Gal3S(b1-4)[Fuc(a1-3)]Glc6S
Method in brief: as §1

[3] = target: Gal3S4S(b1-4)GlcNAc
Method in brief: as §1

[4] = target: Gal3S6S(b1-4)GlcNAc
Method in brief: as §1

[5] = target: Gal3S6S(b1-4)GlcNAc6S
Method in brief: as §1

[6] = target: Gal4S(b1-4)GlcNAc
Method in brief: as §1

[7] = target: Gal4S6S(b1-4)GlcNAc
Method in brief: as §1

[8] = target: Gal6S(b1-4)Glc
Method in brief: as §1

[9] = target: Gal6S(b1-4)Glc6S
Method in brief: as §1

[10] = target: Gal6S(b1-4)GlcNAc
Method in brief: as §1

[11] = target: Gal6S(b1-4)GlcNAc6S
Method in brief: as §1

[12] = target: GalNAc(a1-3)Gal
Method in brief: as §1

[13] = target: GalNAc(a1-3)GalNAc
Method in brief: as §1

[14] = target: GalNAc(a1-3)GalNAc(a1-3)Gal(a1-4)Gal(b1-4)GlcNAc
Method in brief: as §1

[15] = target: GalNAc(b1-3)Gal
Method in brief: as §1

[16] = target: GalNAc(b1-3)Gal(a1-4)Gal(b1-4)GlcNAc
Method in brief: as §1

[17] = target: GalNAc(b1-3)Gal(a1-4)Gal(b1-4)GlcNAc(b1-3)Gal(b1-4)Glc
Method in brief: as §1

[18] = target: GalNAc(b1-3)Gal(a1-6)Gal(b1-4)Glc
Method in brief: as §1

[19] = target: GalNAc(b1-3)GalNAc
Method in brief: as §1

[20] = target: GalNAc(b1-4)GlcNAc
Method in brief: as §1

[21] = target: GalNAc(b1-4)GlcNAc(b1-2)Man(a1-3)[GalNAc(b1-4)GlcNAc(b1-2)Man(a1-6)]Man(b1-4)GlcNAc(b1-4)GlcNAc
Method in brief: as §1

[22] = target: Glc(a1-4)Glc
Method in brief: as §1

[23] = target: Glc(a1-6)Glc(a1-6)Glc
Method in brief: as §1

[24] = target: Glc(b1-4)Glc
Method in brief: as §1

[25] = target: Glc(b1-6)Glc
Method in brief: as §1

[26] = target: GlcA(b1-3)Gal
Method in brief: as §1

[27] = target: GlcA(b1-3)GlcNAc
Method in brief: as §1

[28] = target: GlcA(b1-6)Gal
Method in brief: as §1

[29] = target: GlcNAc(a1-3)Gal(b1-4)GlcNAc
Method in brief: as §1

[30] = target: GlcNAc(a1-4)Gal(b1-3)GlcNAc
Method in brief: as §1

[31] = target: GlcNAc(a1-4)Gal(b1-4)GalNAc
Method in brief: as §1

[32] = target: GlcNAc(a1-4)Gal(b1-4)GlcNAc
Method in brief: as §1

[33] = target: GlcNAc(a1-4)Gal(b1-4)GlcNAc(b1-3)Gal(b1-4)Glc
Method in brief: as §1

[34] = target: GlcNAc(a1-4)Gal(b1-4)GlcNAc(b1-3)Gal(b1-4)GlcNAc
Method in brief: as §1

[35] = target: GlcNAc(a1-4)Gal(b1-4)GlcNAc(b1-3)Gal(b1-4)GlcNAc(b1-3)Gal(b1-4)GlcNAc
Method in brief: as §1

[36] = target: GlcNAc(a1-4)Gal(b1-4)GlcNAc(b1-3)Gal(b1-4)[Fuc(a1-3)]GlcNAc(b1-3)Gal(b1-4)[Fuc(a1-3)]GlcNAc
Method in brief: as §1

[37] = target: GlcNAc(a1-6)Gal(b1-4)GlcNAc
Method in brief: as §1

B1: PEB3 (Campylobacter jejuni), Q0PBL7 (protein)
chain: MKKIITLFGACALAFSMANADVNLYGPGGPHTALKDIANKYSEKTGVKVNVNFGPQATWFEKAKKDADILFGASDQSALAIASDFGKDFNVSKIKPLYFREAIILTQKGNPLKIKGLKDLANKKVRIVVPEGAGKSNTSGTGVWEDMIGRTQDIKTIQNFRNNIVAFVPNSGSARKLFAQDQADAWITWIDWSKSNPDIGTAVAIEKDLVVYRTFNVIAKEGASKETQDFIAYLSSKEAKEIFKKYGWRE
glycan array binding signal (z-score) [1]: 0.458
glycan array binding signal (z-score) [2]: 1.4
glycan array binding signal (z-score) [3]: -0.424
glycan array binding signal (z-score) [4]: 0.282
glycan array binding signal (z-score) [5]: -0.101
glycan array binding signal (z-score) [6]: 0.426
glycan array binding signal (z-score) [7]: 0.429
glycan array binding signal (z-score) [8]: 0.039
glycan array binding signal (z-score) [9]: 1.26
glycan array binding signal (z-score) [10]: 0.659
glycan array binding signal (z-score) [11]: 0.504
glycan array binding signal (z-score) [12]: -0.839
glycan array binding signal (z-score) [13]: -0.103
glycan array binding signal (z-score) [14]: 0.769
glycan array binding signal (z-score) [15]: 0.543
glycan array binding signal (z-score) [16]: -0.136
glycan array binding signal (z-score) [17]: -0.513
glycan array binding signal (z-score) [18]: -0.167
glycan array binding signal (z-score) [19]: 0.955
glycan array binding signal (z-score) [20]: -0.381
glycan array binding signal (z-score) [21]: 4.25
glycan array binding signal (z-score) [22]: -0.618
glycan array binding signal (z-score) [23]: 0.502
glycan array binding signal (z-score) [24]: -0.218
glycan array binding signal (z-score) [25]: 0.346
glycan array binding signal (z-score) [26]: 0.058
glycan array binding signal (z-score) [27]: -0.727
glycan array binding signal (z-score) [28]: -0.725
glycan array binding signal (z-score) [29]: 0.046
glycan array binding signal (z-score) [30]: 0.414
glycan array binding signal (z-score) [31]: 0.489
glycan array binding signal (z-score) [32]: 0.438
glycan array binding signal (z-score) [33]: -0.257
glycan array binding signal (z-score) [34]: -0.373
glycan array binding signal (z-score) [35]: -1.06
glycan array binding signal (z-score) [36]: 3.7
glycan array binding signal (z-score) [37]: -0.037
